In PMC3653798:

Target: Drosophila Van Gogh/Strabismus (Vang), Myc-tagged (Drosophila melanogaster)
Test: co-IP; Drosophila tagged proteins co-expressed in HEK293T cells; lysis in 150 mM NaCl, 50 mM Tris/HCl pH 7.5, 10% glycerol, 0.4% Nonidet P-40; IP with anti-FLAG conjugated to Dynabeads M-270, 1 h at 4°C (reverse IP by the partner's tag); Western blot

B1: Drosophila APP Like (APPL), FLAG-tagged (protein, UniProt P14599 28-887)
chain: ASPRWEPQIAVLCEAGQIYQPQYLSEEGRWVTDLSKKTTGPTCLRDKMDLLDYCKKAYPNRDITNIVESSHYQKIGGWCRQGALNAAKCKGSHRWIKPFRCLGPFQSDALLVPEGCLFDHIHNASRCWPFVRWNQTGAAACQERGMQMRSFAMLLPCGISVFSGVEFVCCPKHFKTDEIHVKKTDLPVMPAAQINSANDELVMNDEDDSNDSNYSKDANEDDLDDEDDLMGDDEEDDMVADEAATAGGSPNTGSSGDSNSGSLDDINAEYDSGEEGDNYEEDGAGSESEAEVEASWDQSGGAKVVSLKSDSSSPSSAPVAPAPEKAPVKSESVTSTPQLSASAAAFVAANSGNSGTGAGAPPSTAQPTSDPYFTHFDPHYEHQSYKVSQKRLEESHREKVTRVMKDWSDLEEKYQDMRLADPKAAQSFKQRMTARFQTSVQALEEEGNAEKHQLAAMHQQRVLAHINQRKREAMTCYTQALTEQPPNAHHVEKCLQKLLRALHKDRAHALAHYRHLLNSGGPGGLEAAASERPRTLERLIDIDRAVNQSMTMLKRYPELSAKIAQLMNDYILALRSKDDIPGSSLGMSEEAEAGILDKYRVEIERKVAEKERLRLAEKQRKEQRAAEREKLREEKLRLEAKKVDDMLKSQVAEQQSQPTQSSTQSQAQQQQQEKSLPGKELGPDAALVTAANPNLETTKSEKDLSDTEYGEATVSSTKVQTVLPTVDDDAVQRAVEDVAAAVAHQEAEPQVQHFMTHDLGHRESSFSLRREFAQHAHAAKEGRNVYFTLSFAGIALMAAVFVGVAVAKWRTSRSPHAQGFIEVDQNVTTHHPIVREEKIVPNMQINGYENPTYKYFEVKE
For B1, the binding was “binds”.

Results are given in words; binding and its absence hold for the method and conditions named. Binding seen in cells or lysates may run through a third protein. Binding can be weak; no strength is given. Where a sequence is shown, tags or fusion partners need not be part of it.
